Data source: PubChem BioAssay AID1671195 (Yale University, 2021)

Aim: 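Knockdowns that increase or decrease uptake of fluorescent LDL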 (primary screen)
System: human Huh7 hepatoma cells
Reagents: siRNA pool against human genes, 18 nM
Duration: about 2 to 2.5 days of knockdown, then 8 h LDL uptake
Conditions: DiI-labelled LDL at 30 µg/ml for 8 h, in lipoprotein-deficient serum medium
Read-out: 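Per-cell DiI-LDL intensity by automated imaging; well means scaled to the plate median and given as a robust z-score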
Scale: robust z-score: higher = more LDL uptake after knockdown
Call rule: 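Active when two or more replicates show a robust z-score above 2 or below -2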
Here is a random part of about 22,000 deposited reagents. About 1,510 of all reagents (6.9%) count as active. 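Active includes knockdowns raising or lowering LDL uptake; positive z-scores mean more uptake, negative mean less.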 Entries without a mark were called inactive. Reagents against one gene are numbered here.

| gene knocked down | reagent no. | robust z-score, replicate 1 | robust z-score, replicate 2 | robust z-score, replicate 3 |
| --- | --- | --- | --- | --- |
| ACLY (ATP citrate lyase) | 1 | 0.514 | 0.335 | 0.473 |
| LOC389316 (retired record) | 1 | -0.268 | -0.353 | -0.32 |
| SLC35A3 | 1 | -0.837 | -0.462 | -0.468 |
| PSMB9 (proteasome 20S subunit beta 9) | 1 | -0.209 | -0.458 | -0.0556 |
| SAGE1 (sarcoma antigen 1) | 1 | -0.391 | 1.2 | 0.866 |
| SLC30A3 | 1 | 1.16 | 1.12 | 0.597 |
| GALNT15 (polypeptide N-acetylgalactosaminyltransferase 15) | 1 | -0.0279 | -0.194 | 0.162 |
| LINGO4 (leucine rich repeat and Ig domain containing 4) | 1 | 0.946 | 1.16 | 0.996 |
| PRR15 (proline rich 15) | 1 | -0.526 | -0.691 | -0.449 |
| NUMA1 (nuclear mitotic apparatus protein 1) | 1 | 0.405 | 0.993 | 0.0361 |
| ANAPC16 (anaphase promoting complex subunit 16) | 1 | -1.36 | -0.884 | -0.723 |
| LOC389300 (retired record) | 1 | 0.604 | 0.241 | 0.369 |
| PEF1 (penta-EF-hand domain containing 1) | 1 | 0.69 | 0.649 | 0.95 |
| CPA2 (carboxypeptidase A2) | 1 | -0.184 | -0.371 | -0.74 |
| HES6 (hes family bHLH transcription factor 6) | 1 | -0.197 | 0.465 | 0.94 |
| SGCE (sarcoglycan epsilon) | 1 | -0.472 | -1.14 | -0.407 |
| LOC401215 (retired record) | 1 | -0.11 | -0.12 | -0.395 |
| KCNQ3 (potassium voltage-gated channel subfamily Q member 3) | 1 | -2.13 (active) | -1.73 | -2.37 |
| ITGB1 (integrin subunit beta 1) | 1 | -0.621 | -1.33 | 0.0374 |
| LOC401268 (retired record) | 1 | -2.11 (active) | -1.9 | -2.12 |
| PGLS (6-phosphogluconolactonase) | 1 | 1.08 | 1.36 | 1.53 |
| NDUFAF2 (NADH:ubiquinone oxidoreductase complex assembly factor 2) | 1 | -0.631 | -1.25 | -0.638 |

A portion taken from the entries so far, for reference:
| gene knocked down | reagent no. | robust z-score, replicate 1 | robust z-score, replicate 2 | robust z-score, replicate 3 |
| --- | --- | --- | --- | --- |
| LINGO4 (leucine rich repeat and Ig domain containing 4) | 1 | 0.946 | 1.16 | 0.996 |
| PRR15 (proline rich 15) | 1 | -0.526 | -0.691 | -0.449 |
| NUMA1 (nuclear mitotic apparatus protein 1) | 1 | 0.405 | 0.993 | 0.0361 |
| ANAPC16 (anaphase promoting complex subunit 16) | 1 | -1.36 | -0.884 | -0.723 |
| LOC389300 (retired record) | 1 | 0.604 | 0.241 | 0.369 |
| PEF1 (penta-EF-hand domain containing 1) | 1 | 0.69 | 0.649 | 0.95 |

Additional reagents follow:
| gene knocked down | reagent no. | robust z-score, replicate 1 | robust z-score, replicate 2 | robust z-score, replicate 3 |
| --- | --- | --- | --- | --- |
| RAD1 (RAD1 checkpoint DNA exonuclease) | 1 | -0.599 | -1.31 | -1.33 |
| HS3ST1 (heparan sulfate-glucosamine 3-sulfotransferase 1) | 1 | -0.949 | -0.89 | -0.832 |
| RBM12B (RNA binding motif protein 12B) | 1 | 0.597 | 0.877 | 0.894 |
| LOC400163 (retired record) | 1 | 1.25 | 0.968 | 0.229 |
| GSTT1 (glutathione S-transferase theta 1) | 1 | 0.0818 | 0.171 | -0.145 |
| AOPEP (aminopeptidase O (putative)) | 1 | -0.472 | -0.136 | -0.451 |
| STMN1 (stathmin 1) | 1 | 0.87 | 1.03 | 0.316 |
| STMN1 (stathmin 1) | 2 | -0.384 | -0.0147 | -0.585 |
| LOC401605 (retired record) | 1 | -1.3 | -1.36 | -1.58 |
| WDR41 (WD repeat domain 41) | 1 | -3.26 (active) | -2.59 | -3.52 |
| FAM131C2P (family with sequence similarity 131 member C2, pseudogene) | 1 | 1.29 | 0.922 | 0.772 |
| CDKN2AIP (CDKN2A interacting protein) | 1 | 0.0222 | 2.1 | -0.0896 |
| KRT8P12 (keratin 8 pseudogene 12) | 1 | -0.88 | -0.495 | -0.608 |
| LOC150371 (retired record) | 1 | -1.29 | -1.66 | -1.35 |
| DUSP10 (dual specificity phosphatase 10) | 1 | -0.177 | -0.127 | -0.347 |
| LOC441830 (retired record) | 1 | -1.87 | -1.45 | -1.22 |
| CNOT6 (CCR4-NOT transcription complex subunit 6) | 1 | 1.26 | 1.07 | 1.38 |
| PRR29-AS1 (PRR29 antisense RNA 1) | 1 | -0.413 | -0.476 | -0.389 |
| CDK5P1 (cyclin dependent kinase 5 pseudogene 1) | 1 | 0.685 | 0.674 | 1.15 |
| APOBEC3A (apolipoprotein B mRNA editing enzyme catalytic subunit 3A) | 1 | -1.1 | -1.51 | -1.4 |
| KAZALD1 (Kazal type serine peptidase inhibitor domain 1) | 1 | -1.46 | -1.56 | -1.6 |
| OR2A14 (olfactory receptor family 2 subfamily A member 14) | 1 | 3.92 (active) | 3.47 | 5.21 |
| ABCG1 (ATP binding cassette subfamily G member 1) | 1 | 3.18 (active) | 3.25 | 1.77 |
| CYBB (cytochrome b-245 beta chain) | 1 | -0.619 | 0.0756 | -1.04 |
| PHRF1 (PHD and ring finger domains 1) | 1 | 0.352 | -0.622 | -0.841 |
| BTN1A1 (butyrophilin subfamily 1 member A1) | 1 | 0.534 | 0.139 | 0.349 |
| LINC01566 (long independently transcribed non-coding RNA 1566) | 1 | -0.413 | -0.448 | -0.398 |
| FBXO28 (F-box protein 28) | 1 | 0.545 | 1.08 | 1.85 |
| KCTD19 (potassium channel tetramerization domain containing 19) | 1 | 0.743 | 0.55 | 1.69 |
| PIGS (phosphatidylinositol glycan anchor biosynthesis class S) | 1 | 2.61 (active) | 3.26 | 3 |
| CCDC24 (coiled-coil domain containing 24) | 1 | -0.0578 | 0.985 | -0.25 |
| HKDC1 (hexokinase domain containing 1) | 1 | 2.27 (active) | 3.22 | 2.35 |
| SLC35B2 | 1 | -1.58 | -1.51 | -1.85 |
| OXGR1 (oxoglutarate receptor 1) | 1 | -0.426 | 0.13 | -0.289 |
| LRRC58 (leucine rich repeat containing 58) | 1 | 0.502 | 1.75 | 1.18 |
| LOC441474 (retired record) | 1 | -1.18 | -1.22 | -1.5 |
| LOC286126 (retired record) | 1 | -0.2 | -0.75 | -0.941 |
| GTF2A2 (general transcription factor IIA subunit 2) | 1 | -0.644 | -0.713 | -0.474 |
| MYH13 (myosin heavy chain 13) | 1 | 1.07 | 0.405 | 0.968 |
| MYL1 (myosin light chain 1) | 1 | 2.06 (active) | 2.2 | 2.9 |
| PCGF3 (polycomb group ring finger 3) | 1 | 0.394 | 0.82 | 0.901 |
| OR5M10 (olfactory receptor family 5 subfamily M member 10) | 1 | 0.312 | 0.672 | 0.8 |
| PSG1 (pregnancy specific beta-1-glycoprotein 1) | 1 | 0.62 | 1.05 | 1.37 |
| DLL1 (delta like canonical Notch ligand 1) | 1 | 0.5 | 0.578 | 1.15 |
| ANKRD30BL (ankyrin repeat domain 30B like) | 1 | -0.184 | -0.536 | -0.418 |
| LOC442565 (retired record) | 1 | -1.75 | -1.44 | -0.205 |
